# Data reported in patent publication US11680082B2 (ENLITISA (SHANGHAI) PHARMACEUTICAL CO., LTD, priority 2018, dated 2023).
# Some peptides are written in HELM: one residue between dots, names in brackets for other building blocks, links after the first $. Non-standard residues stand in square brackets, D forms with d. No end group written: not given here. Hyp = O=C(O)[C@@H]1C[C@@H](O)CN1; pS = N[C@@H](COP(=O)(O)O)C(=O)O
# Assay: general procedure: Fmoc solid-phase peptide synthesis; Fmoc-Lys(Boc)-Wang resin; Fmoc-Lys(Dde)-OH on a Wang resin (GL Biochem); TBTU, DIPEA
Substance,"step yield (purification step, from the crude product)",crude mass (whole synthesis),isolated mass (whole synthesis),"final purity (method not given) (whole synthesis, LCMS, analysis column GS-120-5-C18-BIO 4.6*250 mm, UV at 220 nm, scale of the general procedure 9.15 g resin, 3 g resin)"
AKP[pS]Y[Hyp][Hyp]TYK,approximately 7%,1.4 g,98 mg,
"PEPTIDE1{A.K.P.S.Y.[Hyp].[Hyp].T.Y.K}|CHEM1{[MonSty]}|CHEM2{[MonSty]}$PEPTIDE1,CHEM1,2:R3-1:R2|PEPTIDE1,CHEM2,10:R3-1:R2$$$V2.0",,,,90% to 95%
